Results are given in words; binding and its absence hold for the method and conditions named. Binding seen in cells or lysates may run through a third protein. Some results given as binding are weak or reduced against the parent protein; the word gives no strength.

Sequences of proteins named here, by UniProt entry; tags and fusion partners are left off.
UniProt P49841: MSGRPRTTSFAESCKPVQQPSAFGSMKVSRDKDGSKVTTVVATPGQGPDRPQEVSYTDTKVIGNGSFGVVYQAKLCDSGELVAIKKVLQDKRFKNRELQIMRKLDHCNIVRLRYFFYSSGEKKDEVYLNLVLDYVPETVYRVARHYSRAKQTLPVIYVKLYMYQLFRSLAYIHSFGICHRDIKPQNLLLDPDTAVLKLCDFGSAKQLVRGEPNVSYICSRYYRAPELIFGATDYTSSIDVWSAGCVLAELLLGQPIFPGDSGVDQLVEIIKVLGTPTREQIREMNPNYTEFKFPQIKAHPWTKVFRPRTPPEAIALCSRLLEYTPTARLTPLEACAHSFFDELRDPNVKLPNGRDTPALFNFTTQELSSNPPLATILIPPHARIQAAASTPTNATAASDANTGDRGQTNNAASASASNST

Assay [1] deals with Glycogen Synthase Kinase 3 beta (human (endogenous in HepG2)) (UniProt P49841). The experiment in a line: co-IP; mitochondrial fractions of HepG2 cells treated for 0 or 1 h with 30 ng/ml TNF-α; precipitated with polyclonal antibodies against GSK3β, p53 (FL-393) or TFAM on agarose protein A/G Plus beads, with IgG or no antibody as control; Western blot.
Assay [2] concerns the target T1, mitochondrial transcription factor A (human (endogenous in HepG2)) (UniProt Q00059).
T1 sequence: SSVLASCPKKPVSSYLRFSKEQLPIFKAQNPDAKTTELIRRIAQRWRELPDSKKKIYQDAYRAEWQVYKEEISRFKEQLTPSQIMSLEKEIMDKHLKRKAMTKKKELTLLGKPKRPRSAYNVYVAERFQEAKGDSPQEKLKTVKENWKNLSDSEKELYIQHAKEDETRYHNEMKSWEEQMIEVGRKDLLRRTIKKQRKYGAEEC
Described as above.

Take “tumor suppressor p53 (from UniProt P04637 1-393)”: the binding result in assay [1] and in assay [2] was “binds” in each case.

B1: mitochondrial transcription factor A (protein, UniProt Q00059 43-246)
chain: SSVLASCPKKPVSSYLRFSKEQLPIFKAQNPDAKTTELIRRIAQRWRELPDSKKKIYQDAYRAEWQVYKEEISRFKEQLTPSQIMSLEKEIMDKHLKRKAMTKKKELTLLGKPKRPRSAYNVYVAERFQEAKGDSPQEKLKTVKENWKNLSDSEKELYIQHAKEDETRYHNEMKSWEEQMIEVGRKDLLRRTIKKQRKYGAEEC
For B1, in assay [1], the binding result is given as “no binding”.

For the origin of these results see paper PMC3401193.
